These are yes or no findings as the source states them, for the method shown. Binding seen in cells or lysates may run through a third protein. Some binding calls cover weakened binding; strength is not graded here. Sequences can lack the tags named with a protein.

The chains behind the UniProt entries cited, without tags or fusion partners. Where a name states a change or a piece, a line headed by the entry shows the natural chain unless it says otherwise. A line that says so, or that is headed by a name, gives the form on record, which may keep a tag or linker.
UniProt P52946: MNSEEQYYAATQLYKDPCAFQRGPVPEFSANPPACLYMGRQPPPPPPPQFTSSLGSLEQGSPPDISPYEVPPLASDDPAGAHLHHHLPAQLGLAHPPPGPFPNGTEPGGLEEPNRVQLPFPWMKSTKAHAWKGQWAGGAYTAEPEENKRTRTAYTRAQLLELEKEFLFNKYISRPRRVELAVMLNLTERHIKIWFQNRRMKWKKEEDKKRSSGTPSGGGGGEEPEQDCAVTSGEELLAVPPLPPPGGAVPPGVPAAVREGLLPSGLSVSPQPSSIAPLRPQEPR
HA-tagged mouse Pdx1 Thr152Met (P52946, form named): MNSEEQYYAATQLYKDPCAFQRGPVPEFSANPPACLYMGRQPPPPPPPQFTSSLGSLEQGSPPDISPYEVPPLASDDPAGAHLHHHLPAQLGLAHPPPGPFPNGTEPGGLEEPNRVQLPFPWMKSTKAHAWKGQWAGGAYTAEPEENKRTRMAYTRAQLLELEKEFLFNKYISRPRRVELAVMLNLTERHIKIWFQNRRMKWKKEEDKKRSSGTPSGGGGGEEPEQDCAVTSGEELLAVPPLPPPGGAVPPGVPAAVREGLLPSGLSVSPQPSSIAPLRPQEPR

Experimental findings from article PMC12220937 are described below.

The experiment addresses T1, Flag-tagged mouse Oc1 (ONECUT1) (mouse) (UniProt O08755).
T1 sequence: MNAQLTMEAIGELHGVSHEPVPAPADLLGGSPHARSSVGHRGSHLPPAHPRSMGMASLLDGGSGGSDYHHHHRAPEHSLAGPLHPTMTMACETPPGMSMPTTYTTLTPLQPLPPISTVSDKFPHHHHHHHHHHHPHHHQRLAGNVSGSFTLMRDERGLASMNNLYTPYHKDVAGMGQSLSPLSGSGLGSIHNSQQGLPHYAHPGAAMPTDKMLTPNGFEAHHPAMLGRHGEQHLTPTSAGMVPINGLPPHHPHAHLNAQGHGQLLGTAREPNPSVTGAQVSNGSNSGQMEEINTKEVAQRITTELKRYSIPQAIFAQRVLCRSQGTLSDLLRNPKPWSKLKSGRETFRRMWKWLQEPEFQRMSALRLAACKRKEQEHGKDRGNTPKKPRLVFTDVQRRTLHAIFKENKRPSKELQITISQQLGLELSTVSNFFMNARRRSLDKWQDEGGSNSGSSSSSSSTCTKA
Briefly: co-IP; HA-tagged mouse Pdx1 variants and Flag-tagged mouse Oc1 coexpressed in human embryonic kidney 293T cells; co-IP/Western blot with mouse anti-Flag and rabbit anti-PDX1; n = 3; which protein was precipitated not given. Background: Immunoblotting shows a protein as a band on a membrane.

Consider “HA-tagged mouse Pdx1 (wild type) (from UniProt P52946 1-284)”, for which the binding entry was “binds”.

Turning to “HA-tagged mouse Pdx1 Thr152Met (from UniProt P52946 1-284)”, the binding result is given as “binds”.
